Some peptides are written in HELM: one residue between dots, names in brackets for other building blocks, links after the first $.
Assay: general procedure: Boc solid-phase peptide synthesis; Boc-Gly-resin; p-nitrophenyl ester; N-hydroxybenzotriazole
Conditions: for cyclisation yield: cyclisation step
[1] = whole synthesis, scale 0.5 mmol

Substance	cyclisation yield (run 1)	cyclisation yield (run 2)	isolated yield (whole synthesis, based on initial Gly content on the resin, scale 0.5 mmol)	crude mass [1]	isolated mass [1]
PEPTIDE1{[Pmp].[TyrMe].F.Q.N.C.P.R.G.[am]}$PEPTIDE1,PEPTIDE1,1:R3-6:R3$$$V2.0	37.3%	51.7%			
β-(S-Benzylmercapto)-β,β-cyclopentamethylenepropionyl-Tyr(Bzl)--Phe--Gln--Asn--Cys(Bzl)--Pro--Arg(Tos)--Gly--NH2			62.4%	723 mg	488 mg

Source: US4551445A (The Medical College of Ohio, priority 1983, dated 1985)
